This passage reports binding results from article PMC12013085, “Peptides targeting RAB11A–FIP2 complex inhibit HPIV3, RSV, and IAV replication as broad-spectrum antivirals” (Cell & Bioscience, 2025).

The chains behind the UniProt entries cited, without tags or fusion partners.
UniProt P62491, whole entry: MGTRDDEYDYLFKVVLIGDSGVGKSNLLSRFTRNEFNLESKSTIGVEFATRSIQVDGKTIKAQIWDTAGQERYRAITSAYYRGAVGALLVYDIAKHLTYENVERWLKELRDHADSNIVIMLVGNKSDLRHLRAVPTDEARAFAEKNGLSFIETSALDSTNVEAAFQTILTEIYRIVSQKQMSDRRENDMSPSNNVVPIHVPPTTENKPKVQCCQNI
UniProt Q7L804, whole entry: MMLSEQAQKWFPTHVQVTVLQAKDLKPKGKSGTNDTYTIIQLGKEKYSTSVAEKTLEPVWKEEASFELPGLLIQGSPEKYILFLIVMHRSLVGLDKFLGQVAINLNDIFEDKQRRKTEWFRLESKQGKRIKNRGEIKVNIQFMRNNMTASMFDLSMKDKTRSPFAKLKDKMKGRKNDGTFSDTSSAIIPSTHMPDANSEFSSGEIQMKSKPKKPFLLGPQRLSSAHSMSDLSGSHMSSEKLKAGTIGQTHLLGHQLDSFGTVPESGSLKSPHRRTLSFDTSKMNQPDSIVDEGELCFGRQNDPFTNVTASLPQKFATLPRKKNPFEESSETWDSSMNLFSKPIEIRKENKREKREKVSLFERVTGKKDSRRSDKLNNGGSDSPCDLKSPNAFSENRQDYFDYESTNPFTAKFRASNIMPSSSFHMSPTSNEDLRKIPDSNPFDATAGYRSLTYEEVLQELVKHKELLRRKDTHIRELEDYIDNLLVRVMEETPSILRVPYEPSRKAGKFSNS
UniProt P06162, whole entry: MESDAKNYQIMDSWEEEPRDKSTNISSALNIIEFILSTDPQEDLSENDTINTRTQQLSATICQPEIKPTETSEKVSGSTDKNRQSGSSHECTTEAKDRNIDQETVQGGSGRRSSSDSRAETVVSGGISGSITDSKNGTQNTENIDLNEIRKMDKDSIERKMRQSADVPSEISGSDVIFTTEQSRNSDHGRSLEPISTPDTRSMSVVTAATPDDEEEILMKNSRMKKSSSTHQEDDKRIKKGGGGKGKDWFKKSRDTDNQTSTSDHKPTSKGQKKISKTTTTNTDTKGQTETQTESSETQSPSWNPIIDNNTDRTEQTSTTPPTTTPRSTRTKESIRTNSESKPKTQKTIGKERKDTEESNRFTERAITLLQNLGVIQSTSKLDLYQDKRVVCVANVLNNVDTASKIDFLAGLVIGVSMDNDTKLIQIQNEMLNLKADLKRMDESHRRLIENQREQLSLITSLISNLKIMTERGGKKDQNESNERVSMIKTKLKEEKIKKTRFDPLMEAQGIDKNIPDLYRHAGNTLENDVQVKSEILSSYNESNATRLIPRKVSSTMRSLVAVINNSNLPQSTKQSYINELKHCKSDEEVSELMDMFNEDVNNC

Test [1] concerns the target Flag-RAB11A (UniProt P62491). Kind of test: co-IP; 293T cells transfected one by one with FIP2, N and RAB11A for 36 h, lysates mixed for in vitro co-IP; anti-Flag magnetic beads; control peptide Tat (Fig. 5A).
Test [2] concerns the target Flag-RAB11A (UniProt P62491).

Read-outs that look alike come from different tables or passages of the source. These are yes or no findings as the source states them, for the method shown. In cells and extracts the contact can be indirect. Some entries that bind do so weakly or less than the wild type.

Consider “RAB11 family interacting protein 2 (FIP2) (from UniProt Q7L804 1-512)”, for which, in test [1], the binding entry is on record as “binds”.
Turning to HA-P (from UniProt P06162 1-604), the binding entry in test [2] was “no binding”.
